Measured values reported in patent publication US20210324351.
For some of these results: A negative result means that nothing was seen under these conditions. For some of these results: For at least one entry, the source does not settle the construct or the ends of the probe.

By UniProt entry, the sequences of proteins in these tests, tags left out. Residues count along the entry.
UniProt Q8N884, 157-522 K187N/L195R: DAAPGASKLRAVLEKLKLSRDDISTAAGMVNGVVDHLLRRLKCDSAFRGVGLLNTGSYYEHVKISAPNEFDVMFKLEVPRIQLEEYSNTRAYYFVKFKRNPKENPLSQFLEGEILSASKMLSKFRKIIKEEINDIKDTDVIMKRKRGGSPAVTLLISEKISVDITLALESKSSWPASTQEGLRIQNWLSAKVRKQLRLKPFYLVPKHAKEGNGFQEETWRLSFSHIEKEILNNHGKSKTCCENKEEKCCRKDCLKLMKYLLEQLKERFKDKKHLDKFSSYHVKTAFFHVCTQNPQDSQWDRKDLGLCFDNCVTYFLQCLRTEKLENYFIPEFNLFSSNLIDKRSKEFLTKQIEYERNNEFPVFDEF
UniProt Q8N884, 157-522: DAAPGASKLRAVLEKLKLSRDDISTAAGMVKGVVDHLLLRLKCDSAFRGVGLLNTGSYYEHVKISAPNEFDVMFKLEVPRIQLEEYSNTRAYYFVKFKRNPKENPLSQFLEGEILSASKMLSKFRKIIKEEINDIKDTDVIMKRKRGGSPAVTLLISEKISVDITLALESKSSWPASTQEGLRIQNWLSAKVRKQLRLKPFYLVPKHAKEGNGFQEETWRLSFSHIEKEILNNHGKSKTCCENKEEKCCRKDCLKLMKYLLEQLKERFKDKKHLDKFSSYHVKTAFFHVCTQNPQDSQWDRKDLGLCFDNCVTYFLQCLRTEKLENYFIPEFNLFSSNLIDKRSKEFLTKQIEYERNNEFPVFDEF
UniProt Q8N884, whole entry: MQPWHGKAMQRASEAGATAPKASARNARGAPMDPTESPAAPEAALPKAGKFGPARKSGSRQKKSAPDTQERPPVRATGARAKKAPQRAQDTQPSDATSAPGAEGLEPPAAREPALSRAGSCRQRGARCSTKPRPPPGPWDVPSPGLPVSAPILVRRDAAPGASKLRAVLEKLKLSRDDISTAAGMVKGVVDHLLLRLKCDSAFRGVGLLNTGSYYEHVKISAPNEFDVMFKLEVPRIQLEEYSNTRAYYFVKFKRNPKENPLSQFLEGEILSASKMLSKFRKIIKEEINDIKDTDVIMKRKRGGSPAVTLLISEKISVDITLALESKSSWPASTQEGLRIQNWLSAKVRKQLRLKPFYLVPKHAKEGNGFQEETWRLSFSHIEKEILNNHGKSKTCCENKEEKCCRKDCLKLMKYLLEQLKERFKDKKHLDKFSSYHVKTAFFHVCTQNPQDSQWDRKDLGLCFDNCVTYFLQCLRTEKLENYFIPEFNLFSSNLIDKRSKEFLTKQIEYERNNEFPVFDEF
UniProt Q8N884, whole entry K187N/L195R: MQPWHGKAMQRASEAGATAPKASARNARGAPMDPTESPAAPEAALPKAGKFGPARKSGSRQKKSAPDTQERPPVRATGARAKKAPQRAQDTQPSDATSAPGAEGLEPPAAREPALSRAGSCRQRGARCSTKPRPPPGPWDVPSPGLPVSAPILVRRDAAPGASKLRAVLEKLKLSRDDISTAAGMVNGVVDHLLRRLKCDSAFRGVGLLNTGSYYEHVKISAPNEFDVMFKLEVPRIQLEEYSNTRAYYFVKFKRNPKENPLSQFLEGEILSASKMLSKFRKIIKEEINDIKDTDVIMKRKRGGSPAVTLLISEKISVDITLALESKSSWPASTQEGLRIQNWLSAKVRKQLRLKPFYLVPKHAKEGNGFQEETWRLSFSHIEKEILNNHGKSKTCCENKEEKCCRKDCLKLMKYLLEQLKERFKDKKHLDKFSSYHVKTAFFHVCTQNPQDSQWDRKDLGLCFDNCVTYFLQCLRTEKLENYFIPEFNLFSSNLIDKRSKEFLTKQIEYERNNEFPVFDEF
UniProt Q8C6L5, 147-507 N172K/R180L: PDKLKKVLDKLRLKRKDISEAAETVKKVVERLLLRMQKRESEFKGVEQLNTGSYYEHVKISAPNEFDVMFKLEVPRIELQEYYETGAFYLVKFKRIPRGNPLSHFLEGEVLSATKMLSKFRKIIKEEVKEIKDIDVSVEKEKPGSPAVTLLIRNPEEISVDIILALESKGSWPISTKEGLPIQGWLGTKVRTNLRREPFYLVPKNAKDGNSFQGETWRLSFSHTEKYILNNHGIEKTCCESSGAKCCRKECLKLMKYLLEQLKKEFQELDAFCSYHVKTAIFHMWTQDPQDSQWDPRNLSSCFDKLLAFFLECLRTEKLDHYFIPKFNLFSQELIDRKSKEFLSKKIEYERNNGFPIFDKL
UniProt Q8C6L5, 147-507: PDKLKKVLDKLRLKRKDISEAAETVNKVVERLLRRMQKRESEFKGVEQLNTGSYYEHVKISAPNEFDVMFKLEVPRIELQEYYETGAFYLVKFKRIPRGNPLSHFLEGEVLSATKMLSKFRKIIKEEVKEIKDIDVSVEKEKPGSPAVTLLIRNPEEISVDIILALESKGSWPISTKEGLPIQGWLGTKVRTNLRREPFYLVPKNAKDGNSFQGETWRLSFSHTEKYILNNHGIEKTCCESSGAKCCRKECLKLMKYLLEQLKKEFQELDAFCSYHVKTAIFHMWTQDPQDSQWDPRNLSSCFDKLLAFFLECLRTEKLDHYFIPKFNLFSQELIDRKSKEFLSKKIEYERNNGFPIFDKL

Legend:
[1] = target: hcGAS K187N/L195R (hcGAS*) (Homo sapiens) (UniProt Q8N884); assay: activity assay; details: DNA-stimulated 2'3' cGAMP synthesis, purified recombinant protein, protein details: untagged (6xHis-SUMO2 removed with SENP2)
[2] = target: hcGAS catalytic domain WT (Homo sapiens) (UniProt Q8N884); assay: activity assay; details: DNA-stimulated 2'3' cGAMP synthesis (TLC), 5 mM Mg, 37 C, purified recombinant protein, protein details: untagged (6xHis-SUMO2 removed with SENP2)
[3] = target: mcGAS humanized K187/L195 N172K,R180L (UniProt Q8C6L5); assay: activity assay; details: DNA-stimulated 2'3' cGAMP synthesis, purified recombinant protein, protein details: untagged (6xHis-SUMO2 removed with SENP2)
[4] = target: full-length hcGAS (Homo sapiens) (UniProt Q8N884); assay: activity assay; details: DNA-stimulated 2'3' cGAMP synthesis, purified recombinant protein, protein details: expressed as 6xHis-SUMO2 fusion
[5] = target: mcGAS catalytic domain WT (UniProt Q8C6L5); assay: activity assay; details: purified recombinant protein, protein details: untagged (6xHis-SUMO2 removed with SENP2)
[6] = target: full-length hcGAS K187N/L195R (Homo sapiens) (UniProt Q8N884); assay: activity assay; details: DNA-stimulated 2'3' cGAMP synthesis; purified recombinant protein; protein details: expressed as 6xHis-SUMO2 fusion
[7] = target: hcGAS K187N/L195R (hcGAS*) (Homo sapiens) (UniProt Q8N884); assay: structure; details: 2.3 A binary complex (6CT9) and 2.8 A ternary complex with ATP/Mg (6CTA); 2:2 cGAS:DNA; purified recombinant protein; protein details: untagged (6xHis-SUMO2 removed with SENP2)

Row | Sequence | functional effect ([1]; full activation) | functional effect ([2]; inactive with 17 bp DNA) | functional effect ([3]; recognition of 17 bp abolished) | functional effect ([4]; not activated by short DNA) | functional effect ([5]; DNA-stimulated 2'3' cGAMP synthesis, near equal efficiency to 45 bp) | functional effect [6] | binding result [7] | functional effect ([1]; nearly equal to mcGAS) | functional effect ([2]; ~20-fold less efficient than mcGAS) | functional effect ([3]; restrained to human levels) | functional effect [4] | functional effect ([5]; DNA-stimulated 2'3' cGAMP synthesis (TLC), 5 mM Mg, 37 C)
1 | AAATTGCCGAAGACGAA / TTTCGTCTTCGGCAATT [17 bp DNA] | active | not active | not active | not active | active | active | binds | – | – | – | – | –
2 | TACAGATCTACTAGTGATCTATGACTGATCTGTACATGATCTACA (double strand) [45 bp interferon stimulatory DNA] | – | – | – | – | – | active | – | active | active | active | active | active
